Literature values in patent US8394429B2, “Herbal composition for reducing ADD/ADHD and method thereof” (Nisarga Biotech Pvt. Ltd., priority 2008, dated 2013).
Some of these results come from one statement about several compounds together.

Settings: standard treatment modalities

## COC(=O)C(c1ccccc1)C1CCCCN1 (stereo not shown) [methylphenidate]
  discontinuations for adverse events: more than 10%
